Literature values in US6828350B1, “Modulators of cysteine protease” (Exegenics Inc., priority 1997, dated 2004).
For at least one compound, name, drawing or mass did not settle the structure.

Tested on: 3C protease
Details: background, in words; cited from earlier work

CC1=C2C(=CO[C@H](C)[C@H]2C)C(O)=C(C(=O)O)C1=O [citrinin hydrate]
inhibition of the 3C protease: lower level of inhibition than thysanone
